Experimental data from publication PMC7529252.
These are yes or no findings as the source states them, for the method shown. In cells and extracts the contact can be indirect. These calls come from enrichment with a bait or labelling near it, and not all partners need be listed.

Sequences of proteins named here, by UniProt entry; tags and fusion partners are left off. A change or cut given only in a name is not applied to a line headed by its entry.
UniProt Q9W0F4: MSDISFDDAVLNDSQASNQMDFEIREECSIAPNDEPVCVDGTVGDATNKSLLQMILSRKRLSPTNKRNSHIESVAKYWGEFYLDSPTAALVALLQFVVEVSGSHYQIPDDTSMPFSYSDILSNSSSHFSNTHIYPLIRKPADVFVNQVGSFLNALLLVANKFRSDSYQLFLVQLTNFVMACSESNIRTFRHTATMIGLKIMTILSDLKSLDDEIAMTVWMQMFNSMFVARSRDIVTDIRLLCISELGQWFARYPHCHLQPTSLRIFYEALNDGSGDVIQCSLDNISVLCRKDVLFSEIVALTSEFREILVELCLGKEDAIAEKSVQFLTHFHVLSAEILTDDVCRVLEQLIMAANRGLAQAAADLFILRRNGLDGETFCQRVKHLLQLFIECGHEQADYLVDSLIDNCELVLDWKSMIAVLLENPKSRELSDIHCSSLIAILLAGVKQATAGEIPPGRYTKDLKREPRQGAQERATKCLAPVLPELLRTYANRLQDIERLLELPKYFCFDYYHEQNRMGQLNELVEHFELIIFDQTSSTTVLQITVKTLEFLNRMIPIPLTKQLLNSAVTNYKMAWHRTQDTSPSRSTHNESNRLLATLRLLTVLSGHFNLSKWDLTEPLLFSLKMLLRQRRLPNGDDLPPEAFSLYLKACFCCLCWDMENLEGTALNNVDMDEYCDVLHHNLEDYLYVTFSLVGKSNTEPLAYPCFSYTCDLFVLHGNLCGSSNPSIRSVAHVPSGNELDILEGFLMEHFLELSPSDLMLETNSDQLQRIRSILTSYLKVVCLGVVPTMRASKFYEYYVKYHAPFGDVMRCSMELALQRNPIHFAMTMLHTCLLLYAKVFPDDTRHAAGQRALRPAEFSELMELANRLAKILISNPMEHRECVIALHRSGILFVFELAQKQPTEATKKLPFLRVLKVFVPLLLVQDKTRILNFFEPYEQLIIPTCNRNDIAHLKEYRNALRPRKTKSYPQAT
UniProt Q7JQU5: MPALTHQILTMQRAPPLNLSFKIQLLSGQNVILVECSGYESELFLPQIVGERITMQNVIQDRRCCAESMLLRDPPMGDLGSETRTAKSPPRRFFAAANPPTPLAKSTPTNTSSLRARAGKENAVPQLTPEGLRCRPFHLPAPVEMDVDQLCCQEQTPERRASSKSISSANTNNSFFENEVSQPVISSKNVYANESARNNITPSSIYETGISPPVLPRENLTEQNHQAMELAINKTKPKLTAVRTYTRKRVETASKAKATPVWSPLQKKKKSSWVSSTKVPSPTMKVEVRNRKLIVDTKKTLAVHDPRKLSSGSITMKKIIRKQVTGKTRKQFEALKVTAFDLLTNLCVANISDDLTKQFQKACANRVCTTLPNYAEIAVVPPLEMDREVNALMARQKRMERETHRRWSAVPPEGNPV

Columns and labels:
[1] = biological target: SNM-EGFP (Drosophila melanogaster) (UniProt Q9W0F4); assay: affinity purification with mass spectrometry; EGFP-tagged bait captured on uMACS anti-GFP beads from cleared homogenates of 6000-8000 mass-isolated testes of late larvae and early pupae; lysis buffer 20 mM Tris-HCl pH 7.5, 150 mM NaCl, 2 mM MgCl2, 0.1% NP-40, 5% glycerol, 1 mM DTT, 50 U/ml …; 4 C; four replicates for each genotype; EGFP as control; MS/MS of co-purified proteins
[2] = biological target: MNM-EGFP (Drosophila melanogaster); assay: as above

| binding [1] | binding [2] | Molecule |
| --- | --- | --- |
| binds |  | UNO (endogenous) (from UniProt Q7JQU5) |
|  | binds | TEF (endogenous) (protein, UniProt Q7K4M4 1-649) MSKFLDMLSGSQCVSLEKCGDVVVSTNDCMIALYCHFCRDLFTQLPEFLRHLQSNHSDVLHFTKEHNVYSVEELLSGEQGKAHEDAQSAGHNSSSGDSSSLMNSEDSRAIEGSEDNSDNSPMKPEQIGKQSEINLLAEVTNILLQTNDKELKPENGVFNRPRKKANNESSSLKICDLKSHTIARTSRKRMSMVKNRILRVLDSDLSAKLEIKPPEPNSKLSITEPIQEDNIPGTCFDTPTKPIPSSSQLSVRKSSLTEANQICTKYAEKKTAPTMPKLLNCVPKPILTSQQAHTNAEISEINETYHLAASQVTKTTKTFPVKITQIDILQPVKLPKTLITPINEEGVSDQVENSTNNINNAQSLPKENTKKFFKKRSELGIKAQGSPNKFFKIIKSKANPIIVKRVQTTSAKASTNKIQIRSNDKTNCFASEFNSTKIRKLKMENCVDLKSEDPCANTNTRLNKLATISSCEILKAVGLPAITDNPIEDTLLPDELETIRKKADQFIKIYRKYDSIWNYRKICPPAKPDFISQQIFALTREVNKTMLCNLANSDIKGIINQISVWHYNIYTQYIDLDTISENARYTLKLFSFLPVSFAYFCKCCDDIFILKKEYLKHLISHQVRFQCTKCIKVFKYKGYYEKHLRNAHS |
